These are yes or no findings as the source states them, for the method shown. Binding seen in cells or lysates may run through a third protein. Tags and fused reporters may be left off the sequences shown.
Target: T1, GFP-tagged GASZ (mouse) (UniProt Q8VD46)
T1 sequence: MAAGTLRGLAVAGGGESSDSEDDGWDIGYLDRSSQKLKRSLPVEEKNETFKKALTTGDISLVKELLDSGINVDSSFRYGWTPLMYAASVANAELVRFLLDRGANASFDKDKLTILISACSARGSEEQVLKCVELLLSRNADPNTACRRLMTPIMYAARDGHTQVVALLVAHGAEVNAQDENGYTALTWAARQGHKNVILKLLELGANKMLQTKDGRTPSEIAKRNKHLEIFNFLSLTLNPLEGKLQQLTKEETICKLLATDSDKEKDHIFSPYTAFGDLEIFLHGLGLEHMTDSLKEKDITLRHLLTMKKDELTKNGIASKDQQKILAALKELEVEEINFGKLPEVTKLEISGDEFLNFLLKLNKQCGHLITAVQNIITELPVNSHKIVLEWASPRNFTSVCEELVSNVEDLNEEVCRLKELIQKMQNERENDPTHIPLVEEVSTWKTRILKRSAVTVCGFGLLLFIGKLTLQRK
Test: co-IP; proteins co-expressed in 293T cells; lysis buffer 50 mM Tris pH7.6, 300 mM NaCl, 1% Triton X-100; IP with FLAG affinity beads, Western blot

By UniProt entry, the sequences of proteins in these tests, tags left out.
UniProt Q9JMB7: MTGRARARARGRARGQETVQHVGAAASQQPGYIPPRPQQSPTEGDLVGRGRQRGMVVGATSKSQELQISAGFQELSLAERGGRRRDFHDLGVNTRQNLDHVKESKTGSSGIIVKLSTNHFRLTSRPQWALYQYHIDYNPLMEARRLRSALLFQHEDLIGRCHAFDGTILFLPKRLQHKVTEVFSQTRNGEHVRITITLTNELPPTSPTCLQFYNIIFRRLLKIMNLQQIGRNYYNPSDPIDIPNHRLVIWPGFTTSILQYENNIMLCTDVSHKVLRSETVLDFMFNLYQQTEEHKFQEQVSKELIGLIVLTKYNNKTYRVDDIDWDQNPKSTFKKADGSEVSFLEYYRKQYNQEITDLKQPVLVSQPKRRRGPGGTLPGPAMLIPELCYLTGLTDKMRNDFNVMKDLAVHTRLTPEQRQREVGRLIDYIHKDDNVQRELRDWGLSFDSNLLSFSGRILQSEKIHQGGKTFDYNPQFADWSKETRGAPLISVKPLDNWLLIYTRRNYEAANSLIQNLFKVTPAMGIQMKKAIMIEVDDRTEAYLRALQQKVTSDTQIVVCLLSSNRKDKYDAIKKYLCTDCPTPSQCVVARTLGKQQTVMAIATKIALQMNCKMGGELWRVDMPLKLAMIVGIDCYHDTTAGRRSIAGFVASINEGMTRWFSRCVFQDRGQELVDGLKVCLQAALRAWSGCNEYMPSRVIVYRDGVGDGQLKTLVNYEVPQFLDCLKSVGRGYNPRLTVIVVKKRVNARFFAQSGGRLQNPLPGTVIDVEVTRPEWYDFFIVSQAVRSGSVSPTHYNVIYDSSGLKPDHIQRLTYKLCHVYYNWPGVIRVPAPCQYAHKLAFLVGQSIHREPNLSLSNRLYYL

- binding: no binding
Substance: FLAG-tagged MIWI (from UniProt Q9JMB7 1-862)

Reference: PMC12507516
